# Record: PubChem BioAssay AID686943 (Drosophila RNAi Screening Center, 2013)
# Aim: 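Fly genes whose loss alters ERK activation after insulin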 (primary screen)
# Cell system: Drosophila S2R+ haemocyte-like cells expressing YFP-tagged ERK (Rolled)
# Knock-down reagent: long dsRNA against Drosophila genes
# Conditions: insulin stimulation versus unstimulated cells; dose and duration not given
# Read-out: 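Per-plate z-scores of phospho-ERK immunostaining normalised to YFP-tagged ERK, measured with and without insulin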
# Reading the numbers: replicate 1, z-score of dpERK with insulin and replicate 2, z-score of dpERK with insulin: higher = more active ERK per ERK-YFP after insulin; replicate 1, z-score of dpERK under basal conditions: higher = more basal active ERK per ERK-YFP; replicate 1, z-score of ERK-YFP with insulin: higher = more YFP-tagged ERK signal
# The deposit covers about 23,000 reagents; this is a random part of those that have a named target and a result. 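Extra replicates exist only for a retested subset of genes; insulin dose and duration not given; both raised and lowered dpERK matter.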 The record does not give: the amount of reagent, the time to read-out.
gene,amplicon,"replicate 1, z-score of dpERK with insulin","replicate 2, z-score of dpERK with insulin","replicate 1, z-score of dpERK under basal conditions","replicate 1, z-score of ERK-YFP with insulin"
dlp (dally-like),DRSC10281,0.47,0.25,-3.35,2.27
dlp (dally-like),DRSC10472,-0.88,-0.99,0.21,0.64
Dhrs4 (Dehydrogenase/reductase 4),DRSC09773,0.41,0.75,0.6,0.2
mRpL21 (mitochondrial ribosomal protein L21),DRSC11100,-0.41,-0.12,-1.38,1.32
CG32984,DRSC21602,0.53,-0.25,0.96,-0.28
Osi5 (Osiris 5),DRSC12276,-0.14,0.34,0.72,-0.26
tub (tube),DRSC12389,0.23,-0.12,0.08,-0.08
tub (tube),DRSC22800,0.12,0.71,-1.03,1.21
Sgs3 (Salivary gland secretion 3),DRSC11280,-0.35,0.03,-0.2,0.51
CG33523,DRSC09814,-0.02,-0.55,-1.12,0.39
CG33523,DRSC22155,-0.6,0.33,-0.07,0.57
CG12075,DRSC17801,-0.06,0.29,0.11,1.67
CG2747,DRSC15450,0.26,-0.16,0.57,0.16
neo (neyo),DRSC16316,-0.06,-0.38,0.3,-1.04
Listericin,DRSC07334,-0.14,-0.18,0.72,-0.34
Tbca (Tubulin binding cofactor A),DRSC15395,-1.99,-1.06,-0.83,1.53
CG15096,DRSC06525,0.6,0.15,-1.79,-0.84
Usf,DRSC18129,0.44,0.52,-0.89,-0.55
CanB2 (Calcineurin B2),DRSC07355,0.26,-0.35,-0.72,-0.48
Pde8 (Phosphodiesterase 8),DRSC04503,-0.4,0.25,-0.89,-0.02
CycA (Cyclin A),DRSC09132,-0.23,-1.67,-2.83,-4.21
CycA (Cyclin A),DRSC11123,-1.18,-1.7,-2.72,-2.93
spz4 (spatzle 4),DRSC02410,1.5,1.52,0.5,-3.2

Reformatted: entries from further up
{"gene":"CG33523","amplicon":"DRSC22155","replicate 1, z-score of dpERK with insulin":-0.6,"replicate 2, z-score of dpERK with insulin":0.33,"replicate 1, z-score of dpERK under basal conditions":-0.07,"replicate 1, z-score of ERK-YFP with insulin":0.57}
{"gene":"CG12075","amplicon":"DRSC17801","replicate 1, z-score of dpERK with insulin":-0.06,"replicate 2, z-score of dpERK with insulin":0.29,"replicate 1, z-score of dpERK under basal conditions":0.11,"replicate 1, z-score of ERK-YFP with insulin":1.67}
